Like-named read-outs stand apart in the source and are kept apart here. These are yes or no findings as the source states them, for the method shown. Binding seen in cells or lysates may run through a third protein. Some entries that bind do so weakly or less than the wild type. For part of these data: Tags and fused reporters may be left off the sequences shown.
T1: GST-NOSIP (UniProt Q9Y314)
T1 sequence: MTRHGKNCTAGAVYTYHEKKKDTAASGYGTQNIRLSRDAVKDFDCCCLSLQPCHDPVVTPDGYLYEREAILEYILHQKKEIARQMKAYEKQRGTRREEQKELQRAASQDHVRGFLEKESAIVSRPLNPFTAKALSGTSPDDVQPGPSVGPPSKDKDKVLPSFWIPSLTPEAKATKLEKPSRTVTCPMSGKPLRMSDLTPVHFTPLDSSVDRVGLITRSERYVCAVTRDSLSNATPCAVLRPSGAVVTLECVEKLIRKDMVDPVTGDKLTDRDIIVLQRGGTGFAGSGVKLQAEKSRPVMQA

By UniProt entry, the sequences of proteins in these tests, tags left out.
UniProt P67775: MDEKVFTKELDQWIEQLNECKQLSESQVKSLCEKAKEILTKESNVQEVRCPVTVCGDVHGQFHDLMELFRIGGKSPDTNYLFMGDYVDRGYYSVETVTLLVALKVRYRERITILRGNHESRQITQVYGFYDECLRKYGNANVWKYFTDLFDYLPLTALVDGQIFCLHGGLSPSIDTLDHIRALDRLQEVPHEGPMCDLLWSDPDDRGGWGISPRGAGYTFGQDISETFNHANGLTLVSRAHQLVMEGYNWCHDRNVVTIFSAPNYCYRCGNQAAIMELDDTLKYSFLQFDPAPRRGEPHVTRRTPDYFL
UniProt P30153: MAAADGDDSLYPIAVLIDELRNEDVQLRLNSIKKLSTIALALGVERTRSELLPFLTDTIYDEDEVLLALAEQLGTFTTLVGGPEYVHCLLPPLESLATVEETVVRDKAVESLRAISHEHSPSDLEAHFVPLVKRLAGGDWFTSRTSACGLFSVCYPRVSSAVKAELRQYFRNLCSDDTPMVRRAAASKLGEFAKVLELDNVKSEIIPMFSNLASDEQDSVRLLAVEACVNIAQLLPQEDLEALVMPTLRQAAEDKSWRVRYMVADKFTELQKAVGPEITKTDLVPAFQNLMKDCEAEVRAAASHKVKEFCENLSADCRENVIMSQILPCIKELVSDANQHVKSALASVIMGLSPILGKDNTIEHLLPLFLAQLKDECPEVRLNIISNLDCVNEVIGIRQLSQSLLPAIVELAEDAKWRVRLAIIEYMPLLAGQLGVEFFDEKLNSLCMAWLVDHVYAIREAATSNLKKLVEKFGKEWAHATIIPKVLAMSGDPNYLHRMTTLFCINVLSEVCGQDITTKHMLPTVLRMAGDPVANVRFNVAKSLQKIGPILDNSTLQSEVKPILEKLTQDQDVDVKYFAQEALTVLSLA

T2: NOSIP (endogenous) (human (endogenous in HeLa)) (UniProt Q9Y314)
T2 sequence: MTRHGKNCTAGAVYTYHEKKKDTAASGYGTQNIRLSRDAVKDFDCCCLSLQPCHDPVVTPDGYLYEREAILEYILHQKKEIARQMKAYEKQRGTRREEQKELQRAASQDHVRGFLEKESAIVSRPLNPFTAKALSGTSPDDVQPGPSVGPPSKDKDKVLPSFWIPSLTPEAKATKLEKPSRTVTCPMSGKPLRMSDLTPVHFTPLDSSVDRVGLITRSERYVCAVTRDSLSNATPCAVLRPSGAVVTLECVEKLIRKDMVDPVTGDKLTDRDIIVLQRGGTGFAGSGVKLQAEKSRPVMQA


Experiments:
[1] = biological target: T1, GST-NOSIP; test: pull-down; GST-NOSIP on Glutathione sepharose beads incubated with cleared HeLa cell lysate at 4°C; immunoblot with PP2A subunit-specific antibodies; only the target purified
[2] = biological target: T2, NOSIP (endogenous) (human (endogenous in HeLa)); test: co-IP; endogenous proteins from HeLa cell lysate; IP with a polyclonal NOSIP-specific antiserum, Protein A/G Agarose; beads only as control; immunoblot with PP2A subunit-specific antibodies
[3] = substrate: T3, NOSIP (endogenous) (human (endogenous in HeLa)) (UniProt Q9Y314); test: as above; remark: listed apart in the source
T3 sequence: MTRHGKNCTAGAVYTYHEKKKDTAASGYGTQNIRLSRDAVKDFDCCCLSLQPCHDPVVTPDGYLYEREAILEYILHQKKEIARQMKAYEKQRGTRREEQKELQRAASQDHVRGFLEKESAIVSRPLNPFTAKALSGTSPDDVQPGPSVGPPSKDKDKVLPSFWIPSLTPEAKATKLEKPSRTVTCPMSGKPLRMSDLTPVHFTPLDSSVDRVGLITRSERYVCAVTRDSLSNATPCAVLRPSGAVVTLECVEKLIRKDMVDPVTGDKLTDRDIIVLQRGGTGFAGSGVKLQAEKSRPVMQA

binding [1]	binding [2]	binding [3]	Molecule
binds	binds		PP2A catalytic subunit alpha isoform (from UniProt P67775 1-309) (enzyme)
binds	binds		PP2A subunit A isoform PR65-alpha (from UniProt P30153 1-589)
binds		binds	PP2A subunit B isoform B55-alpha (protein, UniProt P63151 1-447) MAGAGGGNDIQWCFSQVKGAVDDDVAEADIISTVEFNHSGELLATGDKGGRVVIFQQEQENKIQSHSRGEYNVYSTFQSHEPEFDYLKSLEIEEKINKIRWLPQKNAAQFLLSTNDKTIKLWKISERDKRPEGYNLKEEDGRYRDPTTVTTLRVPVFRPMDLMVEASPRRIFANAHTYHINSISINSDYETYLSADDLRINLWHLEITDRSFNIVDIKPANMEELTEVITAAEFHPNSCNTFVYSSSKGTIRLCDMRASALCDRHSKLFEEPEDPSNRSFFSEIISSISDVKFSHSGRYMMTRDYLSVKIWDLNMENRPVETYQVHEYLRSKLCSLYENDCIFDKFECCWNGSDSVVMTGSYNNFFRMFDRNTKRDITLEASRENNKPRTVLKPRKVCASGKRKKDEISVDSLDFNKKILHTAWHPKENIIAVATTNNLYIFQDKVN

From PMC4278855
